Consider four substances from article PMC12425391.

Sequences of proteins named here, by UniProt entry; tags and fusion partners are left off.
UniProt P42224: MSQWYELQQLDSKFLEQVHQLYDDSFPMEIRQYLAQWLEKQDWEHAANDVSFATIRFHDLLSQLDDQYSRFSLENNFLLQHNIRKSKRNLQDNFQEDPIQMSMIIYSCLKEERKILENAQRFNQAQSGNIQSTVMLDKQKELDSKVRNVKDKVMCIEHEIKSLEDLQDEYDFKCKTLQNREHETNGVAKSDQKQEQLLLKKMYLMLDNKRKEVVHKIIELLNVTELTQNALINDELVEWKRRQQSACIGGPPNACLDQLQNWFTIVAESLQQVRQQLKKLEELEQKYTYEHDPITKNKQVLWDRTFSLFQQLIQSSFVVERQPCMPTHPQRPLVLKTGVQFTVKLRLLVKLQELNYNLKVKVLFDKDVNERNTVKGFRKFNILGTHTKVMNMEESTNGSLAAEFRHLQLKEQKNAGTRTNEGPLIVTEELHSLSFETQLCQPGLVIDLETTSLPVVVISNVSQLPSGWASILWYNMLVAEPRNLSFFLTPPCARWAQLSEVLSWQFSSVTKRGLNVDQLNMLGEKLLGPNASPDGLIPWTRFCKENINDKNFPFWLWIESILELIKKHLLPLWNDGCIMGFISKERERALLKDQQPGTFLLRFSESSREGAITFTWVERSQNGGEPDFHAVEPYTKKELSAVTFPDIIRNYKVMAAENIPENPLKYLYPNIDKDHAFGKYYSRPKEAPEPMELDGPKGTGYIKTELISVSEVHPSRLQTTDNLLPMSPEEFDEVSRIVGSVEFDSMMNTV
UniProt O00471: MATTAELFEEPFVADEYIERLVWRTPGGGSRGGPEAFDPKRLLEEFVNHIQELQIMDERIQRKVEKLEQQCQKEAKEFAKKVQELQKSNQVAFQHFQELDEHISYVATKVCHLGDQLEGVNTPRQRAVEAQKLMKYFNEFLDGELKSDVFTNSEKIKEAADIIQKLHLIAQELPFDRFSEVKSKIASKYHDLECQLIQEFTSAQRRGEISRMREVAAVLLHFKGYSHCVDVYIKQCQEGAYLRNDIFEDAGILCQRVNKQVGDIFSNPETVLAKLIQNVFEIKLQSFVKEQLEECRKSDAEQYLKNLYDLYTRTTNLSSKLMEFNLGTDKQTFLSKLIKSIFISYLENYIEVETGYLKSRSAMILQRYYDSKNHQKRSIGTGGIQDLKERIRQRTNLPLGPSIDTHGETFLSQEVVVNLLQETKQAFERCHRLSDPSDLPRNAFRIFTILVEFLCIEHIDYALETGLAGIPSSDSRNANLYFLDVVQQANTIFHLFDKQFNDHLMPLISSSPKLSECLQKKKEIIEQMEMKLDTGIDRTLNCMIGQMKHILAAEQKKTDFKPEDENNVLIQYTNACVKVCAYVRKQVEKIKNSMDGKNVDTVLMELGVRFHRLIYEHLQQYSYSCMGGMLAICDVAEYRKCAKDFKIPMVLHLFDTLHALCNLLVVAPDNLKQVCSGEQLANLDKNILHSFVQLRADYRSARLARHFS
UniProt Q9UNE7: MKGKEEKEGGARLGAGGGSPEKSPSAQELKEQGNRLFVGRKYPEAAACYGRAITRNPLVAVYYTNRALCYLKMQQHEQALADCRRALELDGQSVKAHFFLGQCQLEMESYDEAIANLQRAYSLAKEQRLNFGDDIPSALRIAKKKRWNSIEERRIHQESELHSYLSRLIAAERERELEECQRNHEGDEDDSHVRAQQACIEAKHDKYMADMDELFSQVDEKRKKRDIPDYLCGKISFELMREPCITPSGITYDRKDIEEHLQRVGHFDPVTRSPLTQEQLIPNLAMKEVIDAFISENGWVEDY
UniProt Q3TPX4: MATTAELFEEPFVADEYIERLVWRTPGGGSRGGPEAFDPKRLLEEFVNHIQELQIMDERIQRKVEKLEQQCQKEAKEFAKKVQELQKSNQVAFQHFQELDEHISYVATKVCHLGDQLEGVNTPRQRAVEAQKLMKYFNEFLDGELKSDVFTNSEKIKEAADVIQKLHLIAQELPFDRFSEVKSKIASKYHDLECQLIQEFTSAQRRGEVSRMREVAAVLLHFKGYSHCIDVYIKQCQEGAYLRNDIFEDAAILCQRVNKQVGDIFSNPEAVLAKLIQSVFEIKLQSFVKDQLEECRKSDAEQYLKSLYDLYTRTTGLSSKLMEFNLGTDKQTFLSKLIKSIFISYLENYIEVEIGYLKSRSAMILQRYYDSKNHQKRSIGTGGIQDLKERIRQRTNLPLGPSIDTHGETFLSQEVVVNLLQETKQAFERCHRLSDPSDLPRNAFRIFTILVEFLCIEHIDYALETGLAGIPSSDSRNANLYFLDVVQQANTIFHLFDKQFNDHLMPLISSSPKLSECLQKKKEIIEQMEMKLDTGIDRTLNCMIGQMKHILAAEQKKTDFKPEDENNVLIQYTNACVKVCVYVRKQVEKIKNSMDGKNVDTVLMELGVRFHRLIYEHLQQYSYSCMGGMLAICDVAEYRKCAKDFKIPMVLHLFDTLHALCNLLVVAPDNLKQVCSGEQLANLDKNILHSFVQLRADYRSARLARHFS
UniProt Q9WUD1: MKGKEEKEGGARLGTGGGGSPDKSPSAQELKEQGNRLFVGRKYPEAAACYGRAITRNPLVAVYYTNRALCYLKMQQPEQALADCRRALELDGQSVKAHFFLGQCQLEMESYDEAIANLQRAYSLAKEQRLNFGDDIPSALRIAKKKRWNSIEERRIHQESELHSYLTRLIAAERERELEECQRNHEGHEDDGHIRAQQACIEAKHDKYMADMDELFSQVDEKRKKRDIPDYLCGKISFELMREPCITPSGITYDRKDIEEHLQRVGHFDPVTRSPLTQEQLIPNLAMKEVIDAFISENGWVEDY

The target in one assay is HA-tagged STAT1 (UniProt P42224). Nature of the assay: co-IP; HEK293T cells co-transfected with the tagged plasmids, whole-cell extracts 48 h after transfection; IP with anti-HA or anti-Flag antibody on Protein G Sepharose beads at 4°C, washed 3x with lysis buffer; immunoblot.
The target of a further assay is HA-tagged Sec10 (UniProt O00471). The description is as above.
For another assay, the target named is Flag-tagged STUB1 (UniProt Q9UNE7). Described as above.
The target in a further assay is Flag-tagged STAT1 (UniProt P42224). The assay is described as above.
Assay [1] concerns the target endogenous STAT1 (HeLa) (human (endogenous in HeLa)) (UniProt P42224). Nature of the assay: co-IP.
Assay [2] deals with endogenous Sec10 (mouse PMs or BMDMs) (mouse (endogenous in PMs or BMDMs)) (UniProt Q3TPX4). The experiment in a line: co-IP.
Assay [3] concerns the target T1, endogenous STAT1 (mouse PMs or BMDMs) (mouse (endogenous in PMs or BMDMs)) (UniProt P42225).
T1 sequence: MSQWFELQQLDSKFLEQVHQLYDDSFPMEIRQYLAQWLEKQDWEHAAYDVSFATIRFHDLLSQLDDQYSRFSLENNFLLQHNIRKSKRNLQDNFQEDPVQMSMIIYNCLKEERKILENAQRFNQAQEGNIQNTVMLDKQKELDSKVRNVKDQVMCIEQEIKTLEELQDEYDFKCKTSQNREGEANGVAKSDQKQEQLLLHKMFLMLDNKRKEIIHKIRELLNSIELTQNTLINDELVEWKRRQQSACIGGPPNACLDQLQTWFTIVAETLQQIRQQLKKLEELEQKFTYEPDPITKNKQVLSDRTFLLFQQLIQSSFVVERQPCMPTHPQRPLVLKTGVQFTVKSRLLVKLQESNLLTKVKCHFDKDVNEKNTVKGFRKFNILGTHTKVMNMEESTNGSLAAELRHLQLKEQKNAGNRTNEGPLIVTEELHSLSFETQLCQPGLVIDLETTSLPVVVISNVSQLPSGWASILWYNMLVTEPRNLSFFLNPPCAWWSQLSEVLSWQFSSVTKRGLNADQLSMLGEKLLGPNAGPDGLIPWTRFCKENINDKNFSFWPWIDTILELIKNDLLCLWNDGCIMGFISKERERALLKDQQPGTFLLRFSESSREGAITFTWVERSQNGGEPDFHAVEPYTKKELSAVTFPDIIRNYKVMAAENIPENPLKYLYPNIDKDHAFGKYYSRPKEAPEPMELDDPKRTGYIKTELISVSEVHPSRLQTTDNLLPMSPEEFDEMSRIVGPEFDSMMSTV
The experiment in a line: co-IP.

Results are given in words; binding and its absence hold for the method and conditions named. In cells and extracts the contact can be indirect. Some results given as binding are weak or reduced against the parent protein; the word gives no strength.

Consider “Flag-tagged STUB1 (from UniProt Q9UNE7 1-303) (enzyme)”, for which the binding result in the assay with HA-tagged STAT1 and with HA-tagged Sec10 was “binds” throughout. Consider “HA-tagged Sec10 (from UniProt O00471 1-708)”, for which the binding result with Flag-tagged STUB1 and in the assay with Flag-tagged STAT1 was “binds” each time. Consider “endogenous STUB1 (HeLa) (from UniProt Q9UNE7 1-303) (enzyme)”, for which the binding result in assay [1] is “binds”. For the substance “endogenous STUB1 (mouse PMs or BMDMs) (from UniProt Q9WUD1 1-304) (enzyme)”, the binding result in assay [2] and in assay [3] was “binds” each time.
